# The supplement of paper PMC8728848
# This is one part of the list.
# B1: GS13971A-bth-447-22-447 (Bacteroides thetaiotaomicron) (protein)
# chain: EDVDNERSKGMFSASQSGFSTIEVYDLGPLNKIDLSIAKAGLEDTGGTVTFSVEQSLLDSLNNADGTSYQLLPPECYTIENATYSVSPGGDRRVTGGSLVYDPHKIYNLCGFDELKYVLPLRVSSTGTPMNSDRTATLYGFIVKEAIVRLASTGGDFVVEGGTTTSPMNLDTEISFENEWDLTTSFATKGADYVDNYNSANSTYYIPLPSDFYTLPDVTIAKGKTTGGSAISLLGETLPPGNYLLPVSLGGLSGQGDASINIDKETVANYFVIKQGGPINRDHWTVTANTEEKTGEVSAAYPHNGQTISLIDGEINTFWHSKWQGGEVAPPYEIILDMGKENSVSQLGLIARQNALTSMNLEIYAGDDGETWNLIGKYFFDGSIKTEQMVPVKACDARWIRIYIPTLGSGSSVGHLAEIYVYGTDK
# How the values were obtained:
# Experiment in all cases: glycan array binding signal (z-score within array); higher = stronger binding
# Conditions in all cases: glycan notation: IUPAC condensed, linker removed
# [1] = molecular target: GlcNAc(b1-3)Gal(b1-4)GlcNAc(b1-3)Gal(b1-4)GlcNAc(b1-3)GalNAc
# Summary of the method: (§1)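 Glycan array binding is given as a within-array Z-score, which can be read as non-binding when negative. The arrays, 3228 of them, came from the Consortium for Functional Glycomics database and were retained only where the protein sequence was available. Z-scores were averaged across arrays of the same protein sequence at different concentrations or buffers and across linkers.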
# [2] = molecular target: GlcNAc(b1-3)Gal(b1-4)GlcNAc(b1-3)GalNAc
# Summary of the method: as §1
# [3] = molecular target: GlcNAc(b1-3)Gal(b1-4)GlcNAc(b1-3)[GlcNAc(b1-3)Gal(b1-4)GlcNAc(b1-3)]GalNAc
# Summary of the method: as §1
# [4] = molecular target: GlcNAc(b1-3)Gal(b1-4)GlcNAc(b1-6)[Gal(b1-3)]GalNAc
# Summary of the method: as §1
# [5] = molecular target: GlcNAc(b1-3)Gal(b1-4)GlcNAc(b1-6)[GlcNAc(b1-3)Gal(b1-3)]GalNAc
# Summary of the method: as §1
# [6] = molecular target: GlcNAc(b1-3)Gal(b1-4)GlcNAc(b1-6)[GlcNAc(b1-3)]Gal(b1-4)GlcNAc
# Summary of the method: as §1
# [7] = molecular target: GlcNAc(b1-3)GalNAc
# Summary of the method: as §1
# [8] = molecular target: GlcNAc(b1-3)Man
# Summary of the method: as §1
# [9] = molecular target: GlcNAc(b1-3)[GlcNAc(b1-4)][GlcNAc(b1-6)]GlcNAc
# Summary of the method: as §1
# [10] = molecular target: GlcNAc(b1-3)[GlcNAc(b1-6)]Gal(b1-4)GlcNAc
# Summary of the method: as §1
# [11] = molecular target: GlcNAc(b1-3)[GlcNAc(b1-6)]GalNAc
# Summary of the method: as §1
# [12] = molecular target: GlcNAc(b1-4)Gal(b1-4)GlcNAc
# Summary of the method: as §1
# [13] = molecular target: GlcNAc(b1-4)GlcNAc
# Summary of the method: as §1
# [14] = molecular target: GlcNAc(b1-4)GlcNAc(b1-4)GlcNAc
# Summary of the method: as §1
# [15] = molecular target: GlcNAc(b1-4)GlcNAc(b1-4)GlcNAc(b1-4)GlcNAc(b1-4)GlcNAc
# Summary of the method: as §1
# [16] = molecular target: GlcNAc(b1-4)GlcNAc(b1-4)GlcNAc(b1-4)GlcNAc(b1-4)GlcNAc(b1-4)GlcNAc
# Summary of the method: as §1
# [17] = molecular target: GlcNAc(b1-4)[GlcNAc(b1-6)]GalNAc
# Summary of the method: as §1
# [18] = molecular target: GlcNAc(b1-6)Gal(b1-4)GlcNAc
# Summary of the method: as §1
# [19] = molecular target: GlcNAc(b1-6)GalNAc
# Summary of the method: as §1
# [20] = molecular target: GlcNAc6S(b1-3)Gal(b1-4)GlcNAc
# Summary of the method: as §1
# [21] = molecular target: Kdn(a2-3)Gal(b1-3)GalNAc
# Summary of the method: as §1
# [22] = molecular target: Kdn(a2-3)Gal(b1-3)GlcNAc
# Summary of the method: as §1
# [23] = molecular target: Kdn(a2-3)Gal(b1-4)Glc
# Summary of the method: as §1
# [24] = molecular target: Kdn(a2-3)Gal(b1-4)GlcNAc
# Summary of the method: as §1
# [25] = molecular target: Kdn(a2-3)Gal(b1-4)[Fuc(a1-3)]GlcNAc
# Summary of the method: as §1
# [26] = molecular target: Kdn(a2-6)Gal(b1-4)GlcNAc
# Summary of the method: as §1
# [27] = molecular target: Man(a1-2)Man(a1-2)Man(a1-3)Man
# Summary of the method: as §1
# [28] = molecular target: Man(a1-2)Man(a1-2)Man(a1-6)[Man(a1-3)]Man
# Summary of the method: as §1
# [29] = molecular target: Man(a1-2)Man(a1-3)Man
# Summary of the method: as §1
# [30] = molecular target: Man(a1-2)Man(a1-3)[Man(a1-2)Man(a1-6)]Man
# Summary of the method: as §1
# [31] = molecular target: Man(a1-2)Man(a1-3)[Man(a1-2)Man(a1-6)]Man(a1-6)[Man(a1-2)Man(a1-2)Man(a1-3)]Man
# Summary of the method: as §1
# [32] = molecular target: Man(a1-2)Man(a1-3)[Man(a1-2)Man(a1-6)]Man(a1-6)[Man(a1-2)Man(a1-2)Man(a1-3)]Man(b1-4)GlcNAc(b1-4)GlcNAc
# Summary of the method: as §1
# [33] = molecular target: Man(a1-2)Man(a1-3)[Man(a1-6)]Man(a1-6)[Man(a1-2)Man(a1-3)]Man(b1-4)GlcNAc(b1-4)GlcNAc
# Summary of the method: as §1
# [34] = molecular target: Man(a1-2)Man(a1-6)[Man(a1-3)]Man(a1-6)[Man(a1-2)Man(a1-2)Man(a1-3)]Man
# Summary of the method: as §1
# [35] = molecular target: Man(a1-2)Man(a1-6)[Man(a1-3)]Man(a1-6)[Man(a1-2)Man(a1-2)Man(a1-3)]Man(b1-4)GlcNAc(b1-4)GlcNAc
# Summary of the method: as §1
# [36] = molecular target: Man(a1-3)[Man(a1-6)]Man
# Summary of the method: as §1
# [37] = molecular target: Man(a1-3)[Man(a1-6)]Man(a1-6)[Man(a1-2)Man(a1-3)]Man(b1-4)GlcNAc(b1-4)GlcNAc
# Summary of the method: as §1
binder,measurement,setting,value
B1,glycan array binding signal (z-score),[1],-0.292
same,glycan array binding signal (z-score),[2],-0.083
same,glycan array binding signal (z-score),[3],-0.564
same,glycan array binding signal (z-score),[4],-0.311
same,glycan array binding signal (z-score),[5],-1.21
same,glycan array binding signal (z-score),[6],-0.796
same,glycan array binding signal (z-score),[7],-0.266
same,glycan array binding signal (z-score),[8],0.122
same,glycan array binding signal (z-score),[9],-0.084
same,glycan array binding signal (z-score),[10],0.279
same,glycan array binding signal (z-score),[11],-0.607
same,glycan array binding signal (z-score),[12],0.013
same,glycan array binding signal (z-score),[13],0.218
same,glycan array binding signal (z-score),[14],-0.982
same,glycan array binding signal (z-score),[15],-0.605
same,glycan array binding signal (z-score),[16],-0.067
same,glycan array binding signal (z-score),[17],-0.265
same,glycan array binding signal (z-score),[18],2.1
same,glycan array binding signal (z-score),[19],0.156
same,glycan array binding signal (z-score),[20],0.237
same,glycan array binding signal (z-score),[21],-0.336
same,glycan array binding signal (z-score),[22],-0.109
same,glycan array binding signal (z-score),[23],-0.455
same,glycan array binding signal (z-score),[24],0.345
same,glycan array binding signal (z-score),[25],-0.934
same,glycan array binding signal (z-score),[26],-0.762
same,glycan array binding signal (z-score),[27],-0.358
same,glycan array binding signal (z-score),[28],-0.026
same,glycan array binding signal (z-score),[29],-0.885
same,glycan array binding signal (z-score),[30],-0.699
same,glycan array binding signal (z-score),[31],0.61
same,glycan array binding signal (z-score),[32],-0.776
same,glycan array binding signal (z-score),[33],-0.227
same,glycan array binding signal (z-score),[34],-0.831
same,glycan array binding signal (z-score),[35],-1.17
same,glycan array binding signal (z-score),[36],-0.286
same,glycan array binding signal (z-score),[37],-0.143

# Reformatted as tab-separated lines: entries from further up
binder	measurement	setting	value
B1	glycan array binding signal (z-score)	[2]	-0.083
same	glycan array binding signal (z-score)	[30]	-0.699
